According to article doi:10.1101/2025.07.01.662281:
Results are given in words; binding and its absence hold for the method and conditions named. In cells and extracts the contact can be indirect. A yes stands for co-enrichment or nearness to the bait. Other partners may have been found. Values belong to the binder of their own block, whether it stands above or below them.

Target: T1, full-length Tmem127-BirA (UniProt Q8BGP5)
T1 sequence: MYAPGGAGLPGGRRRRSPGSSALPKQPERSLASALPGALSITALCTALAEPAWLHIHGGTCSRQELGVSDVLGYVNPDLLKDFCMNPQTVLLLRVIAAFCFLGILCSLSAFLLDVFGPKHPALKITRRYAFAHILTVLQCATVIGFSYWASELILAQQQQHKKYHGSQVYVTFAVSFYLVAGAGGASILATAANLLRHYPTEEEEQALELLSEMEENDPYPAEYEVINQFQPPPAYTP
Assay: proximity labelling

B1: Tmem87a (protein, UniProt Q8BXN9 22-555)
chain: FPLSFLGAGPAPVFAADRSKWHIPMPSGKGYFNFGKILFRNTTILLKFDGEPCDQSLNITWFLKSADCYNEIYNFKADEIESYLENLKGKKGLSGRYQTSSRLFQNCSELYKAQSFSGDFTHRLPLLGEKQEAKENATNVTFTGDKIAMHEPLQTWQDAPYIFIVHVGISSSKESPKENALSNLFTMTVEVKGPYEYLTLEDYPLMIFFMVMCIVYVLFGVLWLAWSACYWRDLLRIQFWIGAVIFLGMFEKAVFYAEFQNIRYKGESVQNALVLAELLSAVKRSLARTLVIIVSLGYGIVKPRLGVTLHKVVVAGALYLLFSGMEGVLRVTGAQTDLASLAFIPLAFLDTALCWWIFISLTQTMKLLKLRRNIVKLSLYRHFTNTLILAVAASIVFIIWTTMKFRIVTCQSDWRELWVDDAIWRLLFSMILFVIMILWRPSANNQRFAFSPLSEEDEEDEQKEPMLKESFEGMKMRSTKQEPNGTSKVNKAQEDDLKWVEENVPSSVTDVALPALLDSDEERMITHFERSKME
binding: binds

B2: Slc33a1 (protein, UniProt Q99J27 1-550)
chain: MSPTISHKDSSRQRRSGMFSHALDMKSGPLPPGGWDDSRRDSVGGEGDREVLLGDAGPGDLPKAPRSYRSELSSILLLLFLYVLQGIPLGLAGSIPLILQSKNVSYTDQAFFSFVFWPFSLKLLWAPLVDAVYFKNFGRRKSWLVPTQYTLGIFMIYLSTQVDRLLGNIDGRTPDVVALTVTFFLFEFLAATQDIAVDGWALTMLSRENVGYASTCNSVGQTAGYFLGNVLFLALESADFCNKYLRFQPQPRGIVTLSDFLFFWGTVFLITTTLVALLKKENREASIVKEETQGITDTYKLLFSIIKMPAVLAFCLLILTSKIGFSAADAVTGLKLVEEGVPKEHLALLAVPMVPLQIILPLLISKYTAGPQPLNIFYKAMPYRLLLGLEYALLVWWTPKVEHQGGFPLYYYIIVLLSYALHQVTLYSMYVSIMAFNAKVSDPLIGGTYMTLLNTVSNLGGNWPSTVALWLVDPLTVKECVGASNQNCRTPDAIELCKKLGGSCVTALDGYYVESIICVLIGFGWWFFLGPKFKKLQDEGPSSWKCKRNN
binding: binds

B3: Fam234b (protein, UniProt Q8BYI8 1-624)
chain: MATVLSRALKLPGKKSPDLGEYDPLTQADSDESEDDLVLNLQQKNGGVKNGKSALGDLPEPDSDADVAGAAKPHLSEVTPEGFPSEPLGGLEQKATSPLVSYVRTSVFLLTLVISMVLVLLCAFLIPCPPRDLHSAWSRRLGSQGGGDLSPLELADVNRDGLRDVLLTFVTTRNGTEGGVGSQPTADLVCLSGMNGSTLWSSPLPEEAQDVTCLDLIPGSVAKTICLVTGTRKMLSAFNATSGKVLWTLNPNHLSNGTLAAPVVVLPDLDEDGVRDLVVLAIGELQPDLCFLLVSGRTGSPVGRPVKYNIVGVGNLIGPQVYITASGAVYILFGFGNIQAVALRDIFVQAQNRDSSPPSLQIEEPEWEKHRSVNLSELIDVYSDGVELLQLVKAPDSNSSSLLITTRQGLVLLRGQDLTPHWKLNLQGLRSQPTPGYFTDDQTLDFLLQTQDGDGMKKMTVVDGGSGSIVWSYSIPCHMKETPTTSAITSDQKSVFLFWAEALTAASLSSDDSSGAEPPGLYHLYLLHPAFPSILLDLSNTTGIVTASEVGINDIWKDAFYVTRTTGMSPEGHPTSLVVSKLSLRWALMEGQMVQLKETTPKIGRGELRRFLSRIKFVDSPYQI
binding: binds

B6: CD8β (protein, UniProt P10300 22-213)
chain: LIQTPSSLLVQTNHTAKMSCEVKSISKLTSIYWLRERQDPKDKYFEFLASWSSSKGVLYGESVDKKRNIILESSDSRRPFLSIMNVKPEDSDFYFCATVGSPKMVFGTGTKLTVVDVLPTTAPTKKTTLKMKKKKQCPFPHPETQKGLTCSLTTLSLLVVCILLLLAFLGVAVYFYCVRRRARIHFMKQFHK
binding: binds

B8: CD120b/Tnfrsf1b (receptor, UniProt P25119 23-474)
chain: VPAQVVLTPYKPEPGYECQISQEYYDRKAQMCCAKCPPGQYVKHFCNKTSDTVCADCEASMYTQVWNQFRTCLSCSSSCTTDQVEIRACTKQQNRVCACEAGRYCALKTHSGSCRQCMRLSKCGPGFGVASSRAPNGNVLCKACAPGTFSDTTSSTDVCRPHRICSILAIPGNASTDAVCAPESPTLSAIPRTLYVSQPEPTRSQPLDQEPGPSQTPSILTSLGSTPIIEQSTKGGISLPIGLIVGVTSLGLLMLGLVNCIILVQRKKKPSCLQRDAKVPHVPDEKSQDAVGLEQQHLLTTAPSSSSSSLESSASAGDRRAPPGGHPQARVMAEAQGFQEARASSRISDSSHGSHGTHVNVTCIVNVCSSSDHSSQCSSQASATVGDPDAKPSASPKDEQVPFSQEECPSQSPCETTETLQSHEKPLPLGVPDMGMKPSQAGWFDQIAVKVA
binding: binds

More lines, now with the values ahead:

binding: binds
B4: Vps51 (protein, UniProt Q3UVL4 1-782)
chain: MAAAAAVGPGLGSGPGDSPEGPEADAPERRRKAHGMLKLYYGLSEGEVAGHPAGPDPLDPTDLNGAHFDPEVYLDKLRRECPLAQLMDSETDMVRQIRALDSDMQTLVYENYNKFISATDTIRKMKNDFRKMEDEMDRLATNMAVITNFSARISATLQDRHERITKLAGVHALLRKLQFLFELPSRLTKCVELGAYGQAVRYQGRARAVLQQYQHLPSFRAIQDDCQVITARLAQQLRQRFREGCSGAPEQAECVELLLALGEPAEELCEEFLAHARGRLEEELSSLEAELGPSPPAPDVLEFTDRGGNGFVGGLCQVAAAYQELFAAQGPAGAEKLAAFAQELGGRYFALVERRLAQEQGGSDNSLLVRALDRFHRRLRAPGALLAAAGLSESATEIVERVARERLSHHLQGLKAAFLSSLTDVRQALAAPRLAGKEGPSLAELLANVASSILSHIKTSLASVHLFTAKEVSFSNKPYFRGEFCSQGVREGLIVGFIRSMCQTAQSFCDSPGEKGGATPPALLLLLSRLCLDYETATISYILTLTDEQFLVQDQSPVTPVSTLCAEARETARRLLTHYVKVQGLVISQMLRKSVETRDWLSTLEPRNVRAVMKRVVEDTTAIDVQVGLLYEEGVRKAQSSDSSKRTFSVYSSSRQQGRYAPSYTPSAPMDTNLLSNIQKLFSERIDVFSPVEFNKVSVLTGIIKISLKTLLECVRLRTFGRFGLQQVQVDCHFLQLYLWRFVADEELVHLLLDEVVASAALRCPDPVPMEPSVVEVICERG

binding: binds
B5: Vps45 (protein, UniProt P97390 1-570)
chain: MNVVFAVKQYISKMIEDSGPGMKVLLMDKETTGIVSMVYTQSEILQKEVYLFERIDSQNREIMKHLKAICFLRPTKENVEYLIQELRRPKYSIYFIYFSNVISKSDVKSLAEADEQEVVAEVQEFYGDYIAVNPHLFSLNILGCCQGRNWDPAQLSRTTQGLTALLLSLKKCPMIRYQLSSEAAKRLGECVKQVISKEYELFEFRRTEVPPLLLILDRCDDAITPLLNQWTYQAMVHELLGINNNRIDLSRVPGISKDLREVVLSAENDEFYANNMYLNFAEIGSNIKNLMEDFQKKRPKEQQKLESIADMKAFVENYPQFKKMSGTVSKHVTVVGELSRLVSERNLLEVSEVEQELACQNDHSSALQNVKRLLQNPKVTEFDAVRLVMLYALHYERHSSNSLPGLIVDLRSKGVAEKYRKLVSAVVEYGGKRVRGSDLFSPKDAVAITKQFLKGLKGVENVYTQHQPFLHETLDHLIKGRLKENLYPYLGPSTLRDRPQDIIVFIIGGATYEEALTVYNLNRTTPGVRIVLGGTTIHNTKSFLEEVLASGLHSRSRESSQATSRSANRR

binding: binds
B7: Vps8 (protein, UniProt Q0P5W1 1-1427)
chain: METEPDQEHLDQNPCARTVEEELSKSFNLEASLSKFSCLDLDKELEFRSDLIDDKEFDIPQVDTPPTLESILNETDDEDESFVLEDPTLLNVDTIDSHSYDTSSVASSDSGDRANLKRKKKLPDSFSLHGSVMRHSLLKGISAQIVSAADKVDAGLPTAIAVSSLIAVGTSHGLALIFDQNQALRLCLGSTSVGGQYGAISALSINNDCSRLLCGFAKGQITMWDLASGKLLRSITDAHPPGTAILHIKFTDDPTLAICNDSGGSVFELTFKRVMGVRTCESRCLFSGSKGEVCCIEPLHSKPELKDHPITQFSLLAMASLTKILVIGLKPSLKVWMTFPYGRMDPSSVPLLAWHFVAVNNSVNPMLAFCRGDMVHFLLVKRDESGAIHVTKQKHLHLYYDLINFTWINSRTVVLLDSVEKLHVIDRQTQEELETMEISEVQLVYNSSHFKSLATGGNVSQALALVGEKACYQSISSYGGQIFYLGTKSVYVMMLRSWRERMDHLLKQDCLTEALALAWSFHEGKAKAVVGLSGDVSKRKAVVADRMVEILFHYADRALKKCPDQGKIQVMEQHFQDTVPVIVDYCLLLQRKDLLFGQMYDKLSENSVAKGVFLECLEPYILSDKLVGITPQVMKDLIVHFQDKKLLENVEALIVHMDITSLDIQQVVLMCWENRLYDAMVYVYNRGMNEFISPMEKLFKVIAPPLNAGKTLTDEQVVMGNKLLVYISCCLAGRAYPLGDIPEDLVPLVKNQVFEFLIRLHSVEASSEEEVYPYVRTLLHFDTREFLNVLALTFEDFKNDKQAVEYQQRIVDILLKVMVENSDFTPSQVGCLFTFLARQLAKPDNTLFVNRTLFDQVLEFLCSPDDDSRHSERQQVLLELLQAGGIVQFEESRLIRMAEKAEFYQICEFMYEREHQYDKIIDCYLHDPLREEEVFNYIHNILSIPGHSAEEKQSVWQKAMNHMEELVSLKPCKAAELVATHFSEQIEVVIGQLQNQLLLFKFLRSLLDPREGVHVNQELLQIPPHITEQFIELLCQFSPDQVIQTLQVLECYRLEETIQITQKYQLHEVTAYLLEKKGDAHGAFLLLLERLQSRLQEMTRQDENTKEDILLKGVEDTMVETIALCQRNSQNLNQQQREALWFPLLEAMMTPQKLSSSAAAPHPHCEALKSLTMQVLNSMAAFIALPSILQRILQDPIYGKGKLGEIQGLILGMLDTFNYEQTLLETTASLLNQDLHWSLCNLRASVSRGLNPKQDYCSICLQQYKRRQEMADEIIVFSCGHLYHSFCLQSKECTLEVEGQTRWACHKCSSSNKAGKLSENPSENKKGRITSSQVKMSPSYHQSKGDPPARKANSEPVLDPQQMQAFDQLCRLYRGSSRLALLTELSQNRGGDSCRPFAGPQSGPAFNSVFQKENFQLQLAPPPVAED

binding: binds
B9: Zdhhc18 (enzyme, UniProt Q5Y5T2 1-380)
chain: MKDCEYQQISPGAAPPPASPGARRPGPAAPPAPSPGPAPGAPRWSGSGSGSGSLGRRPRRKWEVFPGRNRFYCGGRLMLAGHGGVFALTLLLILSTTILFFVFDCPYLARTLTLAIPIIAAILFFFVMSCLLQTSFTDPGILPRATICEAAALEKQIDNTGSSTYRPPPRTREVMINGQTVKLKYCFTCKMFRPPRTSHCSVCDNCVERFDHHCPWVGNCVGRRNYRFFYAFILSLSFLTAFIFACVVTHLTLLSQGSNFLSALKKTPASVLELVICFFSIWSILGLSGFHTYLVASNLTTNEDIKGSWSSKRGGEASVNPYSHKSIITNCCAVLCGPLPPSLIDRRGFVQSDTALPSPIRSDDPACGAKPDASMVGGHP
